Experimental data reported in publication doi:10.1101/671156.
No constants are given. Whether binding was seen depends on the method and setting. In cells and extracts the contact can be indirect. Here binding means that the protein was enriched with, or labelled near, the bait; the list need not be complete. Sequences can lack the tags named with a protein.

T1: GST-YxxQ (307-545), recombinant CoAA YxxQ repeats (human) (UniProt Q96PK6)
T1 sequence: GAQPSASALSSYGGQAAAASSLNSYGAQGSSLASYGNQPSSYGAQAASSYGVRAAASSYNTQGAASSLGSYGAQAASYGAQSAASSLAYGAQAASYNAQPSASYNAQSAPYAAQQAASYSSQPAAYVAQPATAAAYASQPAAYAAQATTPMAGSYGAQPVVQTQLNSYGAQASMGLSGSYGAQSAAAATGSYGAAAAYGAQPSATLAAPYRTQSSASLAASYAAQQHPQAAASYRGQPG


Biological target: T1, GST-YxxQ (307-545), recombinant CoAA YxxQ repeats (human)
Assay: affinity purification with mass spectrometry

binding | Binder
binds | hnRNP M1 (alternatively spliced isoform of hnRNP M) (protein, UniProt P52272-2 1-691) MAAGVEAAAEVAATEIKMEEESGAPGVPSGNGAPGPKGEGERPAQNEKRKEKNIKRGGNRFEPYANPTKRYRAFITNIPFDVKWQSLKDLVKEKVGEVTYVELLMDAEGKSRGCAVVEFKMEESMKKAAEVLNKHSLSGRPLKVKEDPDGEHARRAMQKAGRLGSTVFVANLDYKVGWKKLKEVFSMAGVVVRADILEDKDGKSRGIGTVTFEQSIEAVQAISMFNGQLLFDRPMHVKMDERALPKGDFFPPERPQQLPHGLGGIGMGLGPGGQPIDANHLNKGIGMGNIGPAGMGMEGIGFGINKMGGMEGPFGGGMENMGRFGSGMNMGRINEILSNALKRGEIIAKQGGGGGGGSVPGIERMGPGIDRLGGAGMERMGAGLGHGMDRVGSEIERMGLVMDRMGSVERMGSGIERMGPLGLDHMASSIERMGQTMERIGSGVERMGAGMGFGLERMAAPIDRVGQTIERMGSGVERMGPAIERMGLSMERMVPAGMGAGLERMGPVMDRMATGLERMGANNLERMGLERMGANSLERMGLERMGANSLERMGPAMGPALGAGIERMGLAMGGGGGASFDRAIEMERGNFGGSFAGSFGGAGGHAPGVARKACQIFVRNLPFDFTWKMLKDKFNECGHVLYADIKMENGKSKGCGVVKFESPEVAERACRMMNGMKLSGREIDVRIDRNA
binds | heterogeneous ribonucleoprotein hnRNP M (protein, UniProt P52272 1-730) MAAGVEAAAEVAATEIKMEEESGAPGVPSGNGAPGPKGEGERPAQNEKRKEKNIKRGGNRFEPYANPTKRYRAFITNIPFDVKWQSLKDLVKEKVGEVTYVELLMDAEGKSRGCAVVEFKMEESMKKAAEVLNKHSLSGRPLKVKEDPDGEHARRAMQKVMATTGGMGMGPGGPGMITIPPSILNNPNIPNEIIHALQAGRLGSTVFVANLDYKVGWKKLKEVFSMAGVVVRADILEDKDGKSRGIGTVTFEQSIEAVQAISMFNGQLLFDRPMHVKMDERALPKGDFFPPERPQQLPHGLGGIGMGLGPGGQPIDANHLNKGIGMGNIGPAGMGMEGIGFGINKMGGMEGPFGGGMENMGRFGSGMNMGRINEILSNALKRGEIIAKQGGGGGGGSVPGIERMGPGIDRLGGAGMERMGAGLGHGMDRVGSEIERMGLVMDRMGSVERMGSGIERMGPLGLDHMASSIERMGQTMERIGSGVERMGAGMGFGLERMAAPIDRVGQTIERMGSGVERMGPAIERMGLSMERMVPAGMGAGLERMGPVMDRMATGLERMGANNLERMGLERMGANSLERMGLERMGANSLERMGPAMGPALGAGIERMGLAMGGGGGASFDRAIEMERGNFGGSFAGSFGGAGGHAPGVARKACQIFVRNLPFDFTWKMLKDKFNECGHVLYADIKMENGKSKGCGVVKFESPEVAERACRMMNGMKLSGREIDVRIDRNA
